# Results as given in patent US20240043943A1, “METHODS AND COMPOSITIONS FOR PROTEASE REPORTER ASSAYS AND MODULATORS” (712 NORTH, INC., priority 2021, published 2024).
# Structures can show the parent of a compound that is named as a salt. For at least one compound, name, drawing or mass did not settle the structure. Some entries repeat one wording, which the source may state once for all of them.
# Target: T1, OMA1 protease (Homo sapiens, UniProt Q96E52)
# T1 sequence (Q96E52 144-524): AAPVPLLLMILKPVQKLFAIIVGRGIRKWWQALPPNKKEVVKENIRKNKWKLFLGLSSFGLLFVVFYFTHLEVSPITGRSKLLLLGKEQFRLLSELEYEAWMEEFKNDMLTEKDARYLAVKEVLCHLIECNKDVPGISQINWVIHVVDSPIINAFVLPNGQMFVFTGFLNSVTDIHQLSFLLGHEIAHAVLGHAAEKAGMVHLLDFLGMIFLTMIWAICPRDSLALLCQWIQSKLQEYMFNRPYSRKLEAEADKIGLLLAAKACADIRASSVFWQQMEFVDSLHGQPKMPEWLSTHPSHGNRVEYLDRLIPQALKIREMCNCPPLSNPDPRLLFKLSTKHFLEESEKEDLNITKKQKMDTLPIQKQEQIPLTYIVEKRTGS
# Test: Rep#15 / Luke-S1 OMA1 reporter bioluminescence assay in Hek293T cells
# Type: cell-based
# Set-up: The OMA1 enzyme is dormant under physiological cell culture conditions in these cells; endogenous in cells; host or cells: Hek293T cells, transiently or stably (Luke-S1 line, ATCC PTA-127022) expressing reporter #15
# Settings: drugs identified with the OMA1 assays (FIG. 17, FIG. 10)
# Text: Example 1 provides a nonlimiting example of generation and use of a reporter of present invention and illustrates its function. To this end, generation and use of reporter gene #01 (SEQ ID NO: 01) and reporter gene #15 (SEQ ID NO: 15) are described and their function compared to each other. The general design of a reporter of present invention is illustrated in FIG. 1A and its working principle in FIG. 1B. A reporter in general, and reporter gene #01 and reporter gene #15 in particular, can be generated as follows. DNA sequences of a reporter may be codon-optimized in silico or by any other way for expression in a suitable host. DNA sequences of reporter genes #01 and #15 were codon-optimized for expression in humans (SEQ ID NO: 02 and SEQ ID NO: 16, respectively). The (optimized) sequences were synthesized and cloned into a pcDNA3.1 expression vector under the control of a CMV promotor (see FIG. 1 for an illustration of such vector). Of course, an expression system and a host should match for best results. The host in this example were Hek293T cells, which were maintained under standard culture conditions in DMEM with 10% Fetal Bovine Serum and 1% Pen/Strep. For an experiment, Hek293T cells were seeded in opaque white tissue-culture treated 96-well plates at 80% confluency and transfected with vectors carrying reporter gene #01 and reporter gene #15 and 24 hours later incubated for 30 minutes at 37° C. in OptiMEM or in OptiMEM with 10 μM CCCP. After 30 minutes, the OptiMEM cell-culture media was replaced with luciferase substrate (furimazine, Promega) diluted 1:100 in OptiMEM, and bioluminescence was measured with a Fluoroskan Ascent FL (Thermo Scientific) using a 517 nm single-pass filter and 200 milliseconds integration time. […] Reporter #01 comprises a large part of OPA1's amino-terminus as mitochondrial targeting sequence, which is cleaved by the mitochondrial processing peptidase upon mitochondrial import (see Example 2). Reporter #15 was initially envisioned as a control for reporter #01. Reporter #15 therefore lacks the first 66 amino acids of reporter #01 believed to be essential for mitochondrial import.
# Example 5 illustrates how mitochondrial toxicity can be measured with reporter and assays of present invention. The OMA1-OPA1 pathway basically serves as a “canary-in-the-coalmine” for a mitochondrial deterioration. […] Hek293T cells expressing reporter #01 and #15 were exposed to CCCP, tipranavir and sorafenib (in OptiMEM) for 30 minutes before the medium was replaced with furimazine (1:100), and bioluminescence measured.
# The following non-limiting examples illustrate in more details the in vivo assessment of OMA1 protease activity utilizing an artificial luciferase reporter of present invention stably expressed in Hek293T cells.
row,Structure (SMILES),OMA1 modulating properties
1,COc1cc(Nc2c(C#N)cnc3cc(OCCCN4CCN(C)CC4)c(OC)cc23)c(Cl)cc1Cl [Bosutinib],OMA1 modulating properties
2,COc1cc2nccc(Oc3ccc(NC(=O)C4(C(=O)Nc5ccc(F)cc5)CC4)cc3)c2cc1OC [Cabozantinib],OMA1 modulating properties
3,Cc1ccc(-c2cc(C(F)(F)F)nn2-c2ccc(S(N)(=O)=O)cc2)cc1 [Celecoxib],OMA1 modulating properties
4,CCc1nc(C(N)=O)c(Nc2ccc(N3CCC(N4CCN(C)CC4)CC3)c(OC)c2)nc1NC1CCOCC1 [Gilteritinib],OMA1 modulating properties
5,C=CC(=O)N1CCC[C@@H](n2nc(-c3ccc(Oc4ccccc4)cc3)c3c(N)ncnc32)C1 [Ibrutinib],OMA1 modulating properties
6,"C[C@H]1Oc2cc(cnc2N)-c2c(nn(C)c2C#N)CN(C)C(=O)c2ccc(F)cc21 [Lodatinib, Lorlatinib]",OMA1 modulating properties
7,Cc1ccc(Nc2nccc(N(C)c3ccc4c(C)n(C)nc4c3)n2)cc1S(N)(=O)=O [Pazopanib hydrochloride],OMA1 modulating properties
8,CCN(CC)CCNC(=O)c1c(C)[nH]c(/C=C2\C(=O)Nc3ccc(F)cc32)c1C [Sunitinib],OMA1 modulating properties
9,CC(=O)Nc1cccc(-n2c(=O)n(C3CC3)c(=O)c3c(Nc4ccc(I)cc4F)n(C)c(=O)c(C)c32)c1 [Trametinib],OMA1 modulating properties
10,CC1(C)CCC(CN2CCN(c3ccc(C(=O)NS(=O)(=O)c4ccc(NCC5CCOCC5)c([N+](=O)[O-])c4)c(Oc4cnc5[nH]ccc5c4)c3)CC2)=C(c2ccc(Cl)cc2)C1 [Venetoclax],OMA1 modulating properties
